# Measured values taken from PubChem BioAssay.
# The other results are listed elsewhere or left out. The main result of the screen is listed elsewhere. These columns were measured beside it and carry no call. Most of these compounds were active or inconclusive in the main read-out, so they are no random draw.
# Assay: reducers of endogenous Her2 protein level, primary screen, SKBR3 breast tumor cells, AlphaScreen, ATP viability (AID 461);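 also: percent of carrier control wells set as 100% viability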
# Settings: 18-24 h, measured here: SKBR3 viability, ATP luminescence, at 10 µM
row,SMILES,viability
1,CNCCC=C1c2ccccc2CCc2ccccc21,23%
2,Cc1ccccc1Cc1c(C)nc2c(C(=O)N3CCN(Cc4ccc5c(c4)OCO5)CC3)cnn2c1C,103%
3,Oc1cccc(Nc2nc(NCC3CCCO3)c3ccccc3n2)c1 (centres undefined),73%
4,Cc1ccc2c(CC(=O)OCc3csc(C)n3)coc2c1,106%
5,CN1CCN(S(=O)(=O)c2ccc(NC(=O)Nc3cccc(Cl)c3)cc2)CC1,96%
6,c1ccc2c(NC3CCCC3)nnc(NC3CCCC3)c2c1,60%
7,COc1cccc(-c2csc(N3CCN(CC(=O)Nc4ccc5c(c4)OCO5)CC3)n2)c1,106%
8,CCN(CCCCOC(=O)c1ccc(OC)c(OC)c1)C(C)Cc1ccc(OC)cc1 (centres undefined),88%
9,O=C(O)C1C2C=CC(C3CC23)C1C(=O)NCCc1ccccc1 (centres undefined),101%
10,CN(C)CCCN1c2ccccc2Sc2ccc(C(F)(F)F)cc21,4.5%
11,CCOC(=O)N1CCC(n2c(=S)[nH]c3cc(OC)c(OC)cc3c2=O)CC1,114%
12,COc1cccc(-c2cc(C(=O)Nc3cc(C)n(Cc4ccc(Cl)cc4)n3)no2)c1,57.5%
13,CCc1ccc(Nc2cc(=O)n(C3CCCCC3)c(=O)[nH]2)cc1,136%
14,C1CCC(C(CC2CCCCN2)C2CCCCC2)CC1 (centres undefined),2%
15,O=C(O)c1ccc2c3c(ncnc13)-c1ccccc1C2=O,60.5%
16,COc1cc(C2Nc3cccc4cccc(c34)N2)cc(OC)c1O,92.5%
17,COc1ccc(-c2nc3cc(NC(=O)Cc4ccc(OC)c(OC)c4)ccc3o2)cc1,90.5%
18,COc1ccccc1-c1noc(-c2ccco2)n1,102%
19,Cc1ccc(-c2oc3ccccc3c(=O)c2O)cc1,78.5%

# A different layout for some results above.
row	SMILES	viability
3	Oc1cccc(Nc2nc(NCC3CCCO3)c3ccccc3n2)c1 (centres undefined)	73%
4	Cc1ccc2c(CC(=O)OCc3csc(C)n3)coc2c1	106%
